Values quoted from earlier work, collected in patent US20060160721A1, “Method of plasma lipidation to prevent, inhibit and/or reverse atherosclerosis” (BAYLOR COLLEGE OF MEDICINE, priority 2004, published 2006).
At least one compound was matched to its structure with a doubt left.

Conditions: cited from earlier work

In the case of `C[C@H](CCC(=O)[O-])[C@H]1CC[C@H]2[C@@H]3[C@H](O)C[C@@H]4C[C@H](O)CC[C@]4(C)[C@H]3C[C@H](O)[C@]12C.[Na+]` [cholate, sodium cholate], the CMC is listed as 15 mM.
